From patent publication US20230220057A1 (STAIDSON BEIJING BIOPHARMACEUTICALS, published 2023)
Where a chain is given by its changes, count along the chain named. These are yes or no findings as the source states them, for the method shown. Some binding calls cover weakened binding; strength is not graded here.

Chains of the proteins cited; added tags and fusions are not shown. Lines headed by an entry give the natural chain unless they say otherwise; changes in a name come on top.
UniProt P01138: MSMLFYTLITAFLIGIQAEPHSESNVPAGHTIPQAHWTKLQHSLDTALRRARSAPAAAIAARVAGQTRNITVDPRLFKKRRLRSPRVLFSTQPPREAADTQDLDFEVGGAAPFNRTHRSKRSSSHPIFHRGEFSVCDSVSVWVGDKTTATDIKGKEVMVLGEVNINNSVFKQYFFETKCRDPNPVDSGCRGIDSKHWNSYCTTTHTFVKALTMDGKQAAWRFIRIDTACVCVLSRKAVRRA

B1: Ab39 (antibody, human IgG1, V domains shown)
VH: EVQLVQSGAEVKKPGATVKISCKVSGYTFITYWISWVQQAPGKGLEWMGAIDPSDSDARYSPSFQGRVTITADKSTDTAYMELSSLRSEDTAVYYCAKSDPGYSGYSLLYGFDSWGQGTLVTVSS
VL: DIVMTQSPLSLPVTLGQPASISCRSSQSLVQRNGNTYLSWYQQRPGQPPRLLIYQVSNRYSGVPDRFSGSGSGTDFTLKISRVEAEDVGVYYCGQGAHLPLTFGQGTKVEIK
B2: Ab44 (antibody, human IgG1, V domains shown)
VH: EVQLVQSGAEVKKPGESLKISCKGSGYSFITYWISWVRQMPGKGLEWMGAIDPSDSDARYSPSFQGQVTISADKSISTAYLQWSSLKASDTAMYYCAKSDPGYSGYSLLYGFDSWGQGTLVTVSS
VL: B1 VL with I2V, P48S
B3: Ab6 (antibody, human IgG1, V domains shown)
VH: B1 VH with K74T
VL: B1 VL with I2V, Y41F
B4: Ab59 (antibody, human IgG1, V domains shown)
VH: B2 VH with G24I
VL: B1 VL
B5: Ab49 (antibody, human IgG1, V domains shown)
VH: B2 VH
VL: B1 VL
B6: Ab60 (antibody, human IgG1, V domains shown)
VH: B2 VH with G24I
VL: B1 VL with Y41F
B7: Ab57 (antibody, human IgG1, V domains shown)
VH: B2 VH with G24I
VL: B1 VL with Y41F, P48S
B8: Ab50 (antibody, human IgG1, V domains shown)
VH: B2 VH
VL: B1 VL with Y41F
B9: Ab56 (antibody, human IgG1, V domains shown)
VH: B2 VH with G24I
VL: B1 VL with I2V, Y41F
B10: Ab47 (antibody, human IgG1, V domains shown)
VH: B2 VH
VL: B1 VL with Y41F, P48S
B11: Ab45 (antibody, human IgG1, V domains shown)
VH: B2 VH
VL: B1 VL with I2V
B12: Ab48 (antibody, human IgG1, V domains shown)
VH: B2 VH
VL: B1 VL with P48S
B13: Ab36 (antibody, human IgG1, V domains shown)
VH: B1 VH
VL: B1 VL with I2V, Y41F
B14: Ab53 (antibody, human IgG1, V domains shown)
VH: B2 VH with G24I
VL: B1 VL with I2V, Y41F, P48S
B15: Ab41 (antibody, human IgG1, V domains shown)
VH: B2 VH
VL: B1 VL with S7T, L11S, Y41L, S72A
B16: Ab42 (antibody, human IgG1, V domains shown)
VH: B2 VH
VL: B1 VL with S7T, L11S, S72A
B17: Ab37 (antibody, human IgG1, V domains shown)
VH: B1 VH
VL: B1 VL with Y41F, P48S
B18: Ab4 (antibody, human IgG1, V domains shown)
VH: B1 VH with K74T
VL: B1 VL with I2V, P48S
B19: Ab40 (antibody, human IgG1, V domains shown)
VH: B1 VH
VL: B1 VL with Y41F
B20: Ab46 (antibody, human IgG1, V domains shown)
VH: B2 VH
VL: B1 VL with I2V, Y41F
B21: Ab43 (antibody, human IgG1, V domains shown)
VH: B2 VH
VL: B1 VL with I2V, Y41F, P48S
B22: Ab61 (antibody, human IgG1, V domains shown)
VH: B1 VH with K74T
VL: B1 VL with I2V, G34A, P48S
B23: Ab51 (antibody, human IgG1, V domains shown)
VH: B2 VH with G24I
VL: B1 VL with S7T, L11S, Y41L, S72A
B24: Ab16 (antibody, human IgG1, V domains shown)
VH: B1 VH with T28S, K74T
VL: B1 VL with I2V, Y41F
B25: Ab54 (antibody, human IgG1, V domains shown)
VH: B2 VH with G24I
VL: B1 VL with I2V, P48S
B26: Ab55 (antibody, human IgG1, V domains shown)
VH: B2 VH with G24I
VL: B1 VL with I2V
B27: Ab52 (antibody, human IgG1, V domains shown)
VH: B2 VH with G24I
VL: B1 VL with S7T, L11S, S72A
B28: Ab58 (antibody, human IgG1, V domains shown)
VH: B2 VH with G24I
VL: B1 VL with P48S

target: recombinantly produced human-NGF (human, UniProt P01138 122-241, limits assumed); assay: NGF binding ELISA

binding | Binder
binds | B1
binds | B2
binds | B3
binds | B4
binds | B5
binds | B6
binds | B7
binds | B8
binds | B9
binds | B10
binds | B11
binds | B12
binds | B13
binds | B14
binds | B15
binds | B16
binds | B17
binds | B18
binds | B19
binds | B20
binds | B21
binds | B22
binds | B23
binds | B24
binds | B25
binds | B26
binds | B27
binds | B28
